Test results as given in patent US20140296164A1, “Compositions and methods of use for cell targeted inhibitors of the Cystic Fibrosis transmembrane regulator associated ligand” (CALISTA THERAPEUTICS, INC., priority 2013, published 2014).
Part of at least one peptide drawing is inferred or uncertain, most often the ends. Some entries share one result that the patent states for a list of compounds. No end group written: not given here.

Tests used:
deltaF508-CFTR [1] = settings: cited from earlier work
deltaF508-CFTR [2] = assay: CFTR agonist evoked short circuit (ISC) current, Ussing epithelial voltage clamp; type: cell-based, human; settings: FIG. 1; CT008 WQVTRV alone, CT002 WQVTRV with BIOPORTER reagent (500 μM)
Text: To test for bioeffectiveness, for our exemplary invention to stabilize CFTR, we measured the chloride transport function homozygous deltaF508-CFTR cystic fibrosis human bronchial epithelial cells grown and differentiated on Snapwell™ filter inserts as CFTR agonist evoked short circuit (ISC) current. The ISC was the output of an Ussing epithelial voltage clamp apparatus after amiloride block of sodium current through the epithelial sodium channel (ENaC). ENaC current was monitored as the amiloride sensitive current component of the ISC. […]
CT003, CT004, CT005, CT006, CT007, and AT0011 were combined with the known corrector VX-809. […] Statistical comparisons were made using Dunnett's test and Student's t-test with significance evaluated at P<0.05. […]
Referring now to the drawings, a first exemplary embodiment is illustrated and generally indicated in FIGS. 1, 2 and 3, which is the measurement of the chloride transport function of homozygous deltaF508-CFTR cystic fibrosis human bronchial epithelial cells grown and differentiated on Snapwell™ filter inserts as CFTR agonist evoked short circuit (ISC) current. […] ENaC current was monitored as the amiloride sensitive current component of the ISC. […]

Substance	concentration required for efficacy (deltaF508-CFTR [1]; prior art sequences with BIOPORTER)	effect on CFTR compared to baseline (deltaF508-CFTR [2])	function without BIOPORTER (deltaF508-CFTR [1]; without BIOPORTER)
ANSRWPTSII	≥ 500 µM	–	–
WQVTRV [CT008, WQVTRV]	–	Neither had any effect	neither sequence functions
